Measurements published in article doi:10.1101/2021.04.21.440771.
Results are given in words; binding and its absence hold for the method and conditions named. In cells and extracts the contact can be indirect. Some binding calls cover weakened binding; strength is not graded here. For some assays here: Sequences can lack the tags named with a protein. Values belong to the binder of their own block, whether it stands above or below them.

By UniProt entry, the sequences of proteins in these tests, tags left out.
UniProt P50149: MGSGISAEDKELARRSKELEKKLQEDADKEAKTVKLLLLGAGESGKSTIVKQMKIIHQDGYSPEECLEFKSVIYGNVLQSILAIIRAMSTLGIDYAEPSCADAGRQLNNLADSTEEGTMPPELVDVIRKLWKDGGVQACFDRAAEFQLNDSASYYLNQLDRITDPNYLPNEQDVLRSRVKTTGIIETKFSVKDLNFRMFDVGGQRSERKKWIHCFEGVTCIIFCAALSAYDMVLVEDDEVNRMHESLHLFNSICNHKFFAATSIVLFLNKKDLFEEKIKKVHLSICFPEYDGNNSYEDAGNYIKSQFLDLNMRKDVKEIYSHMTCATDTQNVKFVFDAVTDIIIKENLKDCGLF

Key:
[1] = molecular target: cone transducin alpha subunit (Gαt2) (mouse (endogenous in retina)) (UniProt P50149); test: co-IP
[2] = molecular target: Gαt2 (Gnat2) fusion construct expressed in 293T cells (UniProt P50149); test: co-IP

binding [1]: binds
B1: G-protein signaling modulator protein 2 (GPSM2) (protein, UniProt Q8VDU0 1-679)
chain: MEGNLISMREDHSFHVRYRMEASCLELALEGERLCKSGDCRAGVSFFEAAVQVGTEDLKTLSAIYSQLGNAYFYLHDYAKALEYHHHDLTLARTIGDQLGEAKASGNLGNTLKVLGNFDEAIVCCQRHLDISRELNDKVGEARALYNLGNVYHAKGKSFGCPGPQDTGEFPEDVRNALQAAVDLYEENLSLVTALGDRAAQGRAFGNLGNTHYLLGNFRDAVIAHEQRLLIAKEFGDKAAERRAYSNLGNAYIFLGEFETASEYYKKTLLLARQLKDRAVEAQSCYSLGNTYTLLQDYEKAIDYHLKHLAIAQELKDRIGEGRACWSLGNAYTALGNHDQAMHFAEKHLEISREVGDKSGELTARLNLSDLQMVLGLSYSTNNSMMSENIEIDGSLHGAGAKLGRRHSMENLELMKLTPEKVPNWNSEILAKQKPLIAKPSAKLLFVNRLKGKKYKSGSACTKVLQDASNSVDHRAPRSQKKISSDTIGDEGFFDLLRRFQSNRMDDQRCHLQGNCRTTSTAAASATPKLMKAPSVSVVSPNTDEFLDLLASSQSRRLDDQRASFSNLPGLRLTKGNSPSVLERLMTNDKKEPDEDFFDILVKCQGSRLDDQRCAPPSAATKGPTVPDEDFFSLILRSQAKRMDEQRVLLQRDPNRDSEFGLKELLQNNALLEFKHSGK

binding [2]: binds
B2: GPSM2 fusion construct expressed in 293T cells (protein, UniProt Q8VDU0 1-679)
chain: B1 chain
